PubChem BioAssay AID743456, Peter MacCallum Cancer Centre, 2014
Test: 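Identify miRNAs tied to vorinostat resistance or sensitivity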 (primary screen). System: human HCT116-VR colon cancer cells, a vorinostat-resistant HCT116 line. Reagents: miRNA mimic. Timing: about 3 days from transfection to readout; drug present for the last 24 h. Challenge: vorinostat at 2.5 µM final for 24 h. Read-out: 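Cell viability from CellTiter-Fluor signal and caspase activity from luminescence after 24 h vorinostat at 2.5 µM, given as robust z-scores and as ratios to mock-transfected wells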. Scale: viability robust z-score and viability vs mock transfection: higher = more viable cells; caspase robust z-score: higher = more caspase activity, more apoptosis. Active means: 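Active when viability drops or caspase activity climbs beyond robust z thresholds, with wells of poor cell health excluded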.
This is one part, drawn at random, of 878 deposited reagents. 27 of all reagents (3.1%) were called active. 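27 mimics are marked active, unlike an earlier stated count of 24; the viability threshold is described inconsistently.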 Entries without a mark were called inactive. Reagent sequences are not shown. Not stated in the record: the amount of reagent.

miRNA | viability robust z-score | caspase robust z-score | viability hit class | caspase hit class | viability vs mock transfection
hsa-miR-558 | -0.06 | 3.68 | no change | no change | 0.74
hsa-miR-1302 | -0.26 | -0.14 | no change | no change | 0.76
hsa-miR-105 | -1.02 | -0.56 | no change | no change | 0.56
hsa-miR-1539 | -0.87 | 5.1 | no change | no change | 0.64
hsa-miR-337-5p | -0.11 | 0.29 | no change | no change | 0.77
hsa-miR-1224-3p | 0.18 | -1.19 | no change | no change | 0.82
hsa-miR-498 | 0.01 | 0.88 | no change | no change | 0.79
hsa-miR-579 | -0.53 | -0.3 | no change | no change | 0.66
hsa-miR-384 | 0.22 | -0.74 | no change | no change | 0.83
hsa-miR-596 | -0.7 | 0.83 | no change | no change | 0.62
hsa-miR-339-3p | -0.2 | 4.15 | no change | no change | 0.72
hsa-miR-370 | 1.3 | -0.78 | no change | no change | 1.01
hsa-miR-30c-1* | -0.28 | 1.29 | no change | no change | 0.7
hsa-miR-556-3p | -1.36 | 0.12 | no change | no change | 0.56
hsa-miR-518d-5p | 0.97 | 1.22 | no change | no change | 0.95
hsa-miR-335 | 0.19 | -0.78 | no change | no change | 0.82
hsa-miR-583 | 0.91 | -0.44 | no change | no change | 0.94
hsa-miR-1469 | 0.1 | -0.57 | no change | no change | 0.81
hsa-miR-216a | 1.07 | -0.57 | no change | no change | 0.96
hsa-miR-519b-3p | 0.2 | 1.76 | no change | no change | 0.78
hsa-miR-99a | 0.16 | -0.14 | no change | no change | 0.82
hsa-miR-30b | 1.08 | -0.2 | no change | no change | 0.96
hsa-miR-1281 | 0.24 | -0.3 | no change | no change | 0.8
hsa-miR-452* | -0.78 | -0.89 | no change | no change | 0.62
hsa-let-7c | -0.17 | 0.4 | no change | no change | 0.76
hsa-miR-378 | 0.36 | -0.48 | no change | no change | 0.82
hsa-miR-29b-2* | -0.52 | 2.38 | no change | no change | 0.66
hsa-miR-590-3p | 0.5 | -0.5 | no change | no change | 0.86
hsa-miR-340* | 0.07 | -0.2 | no change | no change | 0.8
hsa-miR-20a | 0.26 | -0.04 | no change | no change | 0.84
hsa-miR-29b-1* | 0.41 | 0.74 | no change | no change | 0.82
hsa-miR-604 | -1.77 | 0.52 | no change | no change | 0.49
hsa-miR-145 | -0.82 | -1.17 | no change | no change | 0.65
hsa-let-7e* | -3.35 (active) | 1.25 | reduced viability | no change | 0.23
hsa-miR-888* | -1.8 | 3.4 | no change | no change | 0.52
hsa-miR-30b* | -1.18 | 2.27 | no change | no change | 0.59
hsa-miR-507 | 0.02 | -0.43 | no change | no change | 0.79
hsa-miR-423-3p | 0.23 | 0.57 | no change | no change | 0.78
hsa-miR-521 | 0.58 | -0.7 | no change | no change | 0.86
hsa-miR-23a* | 1.17 | -0.5 | no change | no change | 0.98
hsa-miR-545 | 0.4 | -0.03 | no change | no change | 0.86
hsa-miR-135a* | -0.18 | 2.7 | no change | no change | 0.76
hsa-miR-302b* | 0.36 | -0.42 | no change | no change | 0.82
hsa-miR-138-2* | 0.34 | -0.36 | no change | no change | 0.84
hsa-let-7a | 0.94 | 0.7 | no change | no change | 0.92
hsa-miR-302d | -0.3 | 1.38 | no change | no change | 0.74
hsa-miR-147b | 0.97 | 0.44 | no change | no change | 0.92
hsa-miR-874 | -1.63 | 4.11 | no change | no change | 0.55
hsa-miR-512-5p | -0.86 | 2 | no change | no change | 0.66
hsa-miR-622 | -0.32 | 1.06 | no change | no change | 0.74
